Laboratory results reported in article PMC5574897.
No constants are given. Whether binding was seen depends on the method and setting. Binding seen in cells or lysates may run through a third protein. Some results given as binding are weak or reduced against the parent protein; the word gives no strength.

The chains behind the UniProt entries cited, without tags or fusion partners.
UniProt O96017: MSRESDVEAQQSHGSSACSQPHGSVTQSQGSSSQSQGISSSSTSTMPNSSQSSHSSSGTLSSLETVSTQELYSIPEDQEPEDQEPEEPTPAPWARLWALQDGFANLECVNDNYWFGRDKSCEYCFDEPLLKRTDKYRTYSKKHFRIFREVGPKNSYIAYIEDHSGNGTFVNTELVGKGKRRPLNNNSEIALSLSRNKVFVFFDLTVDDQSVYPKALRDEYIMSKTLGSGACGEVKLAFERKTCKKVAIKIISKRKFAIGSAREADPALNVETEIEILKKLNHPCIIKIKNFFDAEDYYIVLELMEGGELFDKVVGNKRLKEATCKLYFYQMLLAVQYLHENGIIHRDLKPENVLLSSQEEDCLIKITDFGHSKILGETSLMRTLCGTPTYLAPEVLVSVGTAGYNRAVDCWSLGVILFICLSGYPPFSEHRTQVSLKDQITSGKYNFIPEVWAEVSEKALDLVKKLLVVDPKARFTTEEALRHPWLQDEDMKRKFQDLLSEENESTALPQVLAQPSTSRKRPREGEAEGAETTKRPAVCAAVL
UniProt P27695: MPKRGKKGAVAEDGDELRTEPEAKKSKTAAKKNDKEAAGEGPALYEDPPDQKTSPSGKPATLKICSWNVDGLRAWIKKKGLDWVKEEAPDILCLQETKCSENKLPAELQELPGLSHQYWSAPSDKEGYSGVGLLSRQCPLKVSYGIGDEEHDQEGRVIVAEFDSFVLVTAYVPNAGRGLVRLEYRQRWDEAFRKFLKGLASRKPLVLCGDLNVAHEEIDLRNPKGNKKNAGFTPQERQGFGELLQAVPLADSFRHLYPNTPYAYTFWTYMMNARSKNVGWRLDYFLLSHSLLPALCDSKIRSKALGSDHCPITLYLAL

Molecular target: checkpoint kinase Chk2 (human (endogenous in HEK293)) (UniProt O96017)
Experiment: co-IP; HEK293 cells, IP with a Chk2 antibody, immunoblot for Ape1 and Chk2; cells asynchronous/untreated or treated with BSA (0.5%, 24 h), double thymidine (2 mM), hydroxyurea (2 mM, 16 h), MMS (250 uM, 4 h, then washed and incubated further), temozolomide (4 h, then 4 h more) or ionizing radiation (3 Gy, harvested after 6 h)

binding: binds
Substance: AP endonuclease 1, Ape1 (from UniProt P27695 1-318)
